Measurements from article PMC2928299.
No constants are given. Whether binding was seen depends on the method and setting. In cells and extracts the contact can be indirect. A result given as binding can be weak or reduced; the word gives no strength. Where a sequence is shown, tags or fusion partners need not be part of it.

Molecular target: T1, SBP-Flag Rnd3 (mouse) (UniProt P61588)
T1 sequence: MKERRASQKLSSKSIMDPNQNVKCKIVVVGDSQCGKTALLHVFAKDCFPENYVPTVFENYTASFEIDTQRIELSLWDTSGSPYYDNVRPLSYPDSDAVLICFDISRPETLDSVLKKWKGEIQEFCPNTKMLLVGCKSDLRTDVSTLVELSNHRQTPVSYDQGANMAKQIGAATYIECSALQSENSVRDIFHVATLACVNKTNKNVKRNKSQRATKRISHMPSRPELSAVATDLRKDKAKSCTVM
Test: pull-down; streptavidin (SBP) pull-down from lysates of co-transfected 293T cells, SBP-Flag GTPase as bait; beads 1 h at 4°C, 3 washes, elution with 2 mM biotin; immunoblot for Flag

Substance: zebrafish Syx RBD(173–246) (domain or fragment)
- binding: binds
